# From PMC12670160, “A drug-repurposing screen of FDA- and EMA-approved drugs identifies two NF-κB inhibitors active against eumycetoma” (Journal of Antimicrobial Chemotherapy, 2025)
# Where a name gives a salt, the structure may show the parent alone. Hit rate of the full screen: of about 5,300 compounds, about 130 (2.5%) showed an effect of 50% or more. This is one part of the list.
# System: M. mycetomatis strain mm55
# Settings: primary screen, metabolic activity vs growth control; 96 h, 2 µM; inhibitor
row,SMILES,% viability [%]
1,"CN1CCN(C(=O)c2nc3cc(Cl)ccc3[nH]2)CC1 [ONC0003559, jnj10191584]",96.39
2,"CC1(C)CN2C(CS/C(=N\C3CCCCC3)NC3CCCCC3)=CSC2=N1 [ONC0001636, it1t]",57.26
3,"O=C(O)C(Cc1ccccc1)NCc1ccc(Cl)cc1 (stereo not drawn) [ONC0002816, brl26314]",122.6
4,"O=C(O)c1ccccc1NCCc1ccccc1 [ONC0003736, tromaril]",110.6
5,"NC1N[C@@](c2cccc(-c3cncnc3)c2)(c2ccnc(C(F)F)c2)c2cccc(F)c21 (stereo partly drawn) [ONC0005216, azd3839]",152.4
6,"NC(=O)[C@@H]1CC[C@@H]2CN1C(=O)N2OS(=O)(=O)O [ONC0001778, avibactam sodium]",97.05
7,"CN[C@@H](C)C(=O)N[C@H](C(=O)N1CCC[C@H]1C(=O)Nc1snnc1-c1ccccc1)C1CCCCC1 [ONC0004552, gdc0152]",53.06
8,"O=C(/C=C/c1ccc2ccc(C(F)(F)F)cc2n1)c1ccncc1 [ONC0002207, pfk158]",67.27
9,"CN1CCN(c2cccc(Nc3nc4c(-c5ccc(S(C)(=O)=O)cc5)cccn4n3)c2)CC1 [ONC0004498, cep33779]",73.37
10,"Oc1ccc(O)cc1 [ONC0003889, hydroquinone]",77.99
11,"Nc1ncnc2c1c(-c1ccc(Oc3ccccc3)cc1)nn2C1CCCC1 [ONC0000019, pci29732]",80.57
12,"COc1cc2nc(N3CCN(C(=O)C4CCCO4)CC3)nc(N)c2cc1OC (stereo not drawn) [ONC0001575, terazosin]",104.2
13,"O=S(=O)(Cc1ccccc1)Nc1ccc(-c2ccc3c(cnn3-c3ccc(F)cc3)c2)c(C(F)(F)F)c1 [ONC0001631, gsk9027]",55.93
14,"CN(C)CCC1(c2ccc(Cl)cc2)Cc2ccccc2C(=O)O1 (stereo not drawn) [ONC0003131, ac7954]",76.48
15,"Nc1ccc(S(=O)(=O)Nc2ccc(Cl)nn2)cc1 [ONC0000623, sulfachlorpyridazine]",114.6
16,"CC(=O)NC(C(=O)O)C(C)(C)SN=O (stereo not drawn) [ONC0003845, snap]",60.59
17,"Cc1ccc(/C=N/NC(=O)c2ccccc2Oc2ccccc2)o1 [ONC0000253, pnu74654]",69.62
18,"Cc1cc2nc3ccc(N(C)C)cc3[s+]c2cc1N [ONC0005325, tolonium chloride]",64.78
19,"CC(=O)[C@H]1CC[C@H]2[C@@H]3CCC4=CC(=O)CC[C@]4(C)[C@H]3[C@H](O)C[C@]12C [ONC0005298, stetaderm]",80.33
20,"CNC(=O)c1nn(C)c2c1C(C)(C)Cc1cnc(Nc3ccc(N4CCN(C)CC4)cc3)nc1-2 [ONC0004754, pha848125]",93.97

# Arranged by length of the SMILES (rising): 3 of the compounds above.
row,SMILES,% viability [%]
10,"Oc1ccc(O)cc1 [ONC0003889, hydroquinone]",77.99
2,"CC1(C)CN2C(CS/C(=N\C3CCCCC3)NC3CCCCC3)=CSC2=N1 [ONC0001636, it1t]",57.26
19,"CC(=O)[C@H]1CC[C@H]2[C@@H]3CCC4=CC(=O)CC[C@]4(C)[C@H]3[C@H](O)C[C@]12C [ONC0005298, stetaderm]",80.33

# Carrying on.

row,SMILES,% viability [%]
1,"CC[C@@H](c1ccc(F)c(F)c1)n1c(C(=O)OC)c(-c2ccno2)[nH]c1=S [ONC0002701, jnj27141491]",54.51
2,"O=C(NC1Cc2ccccc2N(C[C@@H](O)CO)C1=O)c1cc2cc(Cl)sc2[nH]1 (stereo partly drawn) [ONC0002471, gpi688]",65.21
3,"CC(C)CCN1c2nc(Nc3cc(F)c(O)c(F)c3)ncc2N(C)C(=O)C1C (stereo not drawn) [ONC0004496, bid1870]",46.32
4,"O=C1NC(=O)/C(=C/c2ccc(-c3ccc(F)cc3O)o2)S1 [ONC0005022, as252424]",99.61
5,"CCCn1c(=O)c2[nH]c(-c3ccccc3)nc2n(CCC)c1=O [ONC0003016, 13dipropyl8phenylxanthine]",124.5
6,"CCC[C@H](N[C@@H](C)C(=O)N1[C@H](C(=O)O)C[C@@H]2CCCC[C@@H]21)C(=O)O [ONC0004286, perindoprilat]",84.02
7,"Cc1cnc(Nc2ccc(N3CCN(C)CC3)cc2)nc1Nc1cccc(S(=O)(=O)NC(C)(C)C)c1 [ONC0004656, tg101209]",72.92
8,"OC[C@@H](O)[C@@H](O)CO [ONC0002759, erythritol]",109.4
9,"CC[C@]12CCCN3CCc4c(n(c5ccccc45)C(=O)C1)[C@@H]32 [ONC0003441, eburnamonine]",44.28
10,"O=C1C(CC[S+]([O-])c2ccccc2)C(=O)N(c2ccccc2)N1c1ccccc1 (stereo not drawn) [ONC0000462, sulfinpyrazone]",72.77
11,"O=C(Cc1ccc(-c2ccccc2)cc1)Nc1ccccn1 [ONC0003751, difenpiramide]",141.2
12,"NS(=O)(=O)c1cc2c(cc1Cl)N=C(CSCc1ccccc1)NS2(=O)=O [ONC0003290, benzthiazide]",56.37
13,"CCCCC(=O)OCC(=O)[C@]1(O)Cc2c(O)c3c(c(O)c2[C@@H](O[C@H]2C[C@H](NC(=O)C(F)(F)F)[C@H](O)[C@H](C)O2)C1)C(=O)c1c(OC)cccc1C3=O [ONC0000971, valrubicin]",71.95
14,"CC(=O)OC/C=C(C)/C=C/C=C(C)/C=C/C1=C(C)CCCC1(C)C [ONC0003087, retinyl acetate]",76.93
15,"CCOc1cc2ncc(C#N)c(Nc3ccc(OCc4cccc(F)c4)c(Cl)c3)c2cc1NC(=O)/C=C/CN(C)C [ONC0000227, hki357]",74.17
16,"CCC(COC(=O)c1cc(OC)c(OC)c(OC)c1)(c1ccccc1)N(C)C (stereo not drawn) [ONC0004247, trimebutine maleate]",75.79
17,"Clc1ccc2c(c1)N=C(N1CCNCC1)c1ccccc1N2 [ONC0001437, desmethylclozapine]",51.88
18,"CC(C)(C)NCC(O)c1ccc(O)cc1Cl (stereo not drawn) [ONC0001099, hoku81]",66.81
19,"CC(C)Oc1cccc(-n2c(CCc3c[nH]c4ccc(Br)cc34)nc3ccccc3c2=O)c1 [ONC0001496, ly225910]",56.54
20,"CC[C@H](C)n1cc(C)c2c(C(=O)NCc3c(C)cc(C)[nH]c3=O)cc(-c3ccc(N4CCNCC4)nc3)cc21 [ONC0001059, gsk126]",55.52

row,SMILES,% viability [%]
1,"NC(=O)c1noc([C@H](CCCC2CCCCC2)CC(=O)NO)n1 [ONC0004989, uk 383367]",94.55
2,"CC1(CN2CCC(n3c(=O)[nH]c4ccccc43)CC2)OCc2ccccc2-n2cccc21 (stereo not drawn) [ONC0000094, zaldaride maleate]",79.02
3,"COc1ccc(CCN(C)CCc2ccc(OC)c(OC)c2)cc1OC [ONC0001747, ys035]",78.06
4,"CC(=O)O[C@]1(C(C)=O)CC[C@H]2[C@@H]3C=C(C)C4=CC(=O)CC[C@@H]4[C@H]3CC[C@@]21C [ONC0002838, nomegestrolacetate]",99
5,"CC(C)[C@@H]1CC[C@@H](C)C[C@H]1O [ONC0003141, levomenthol]",69.71
6,"NC1(c2ccc(-c3nc4ccn5c(=O)[nH]nc5c4cc3-c3ccccc3)cc2)CCC1 [ONC0004905, mk2206 dihydrochloride]",130.5
7,"C[C@@H]1CC(=O)NN=C1c1ccc(NN=C(C#N)C#N)cc1 [ONC0002839, levosimendan]",115.3
8,"COc1ccc(-c2nc(C(=O)N3CCN(C)CC3)sc2-c2ccc(OC)cc2)cc1 [ONC0001615, fr122047]",72.5
9,"Cc1ccc(Oc2ccccc2-c2csc(N=C3NCCCN3)n2)c(C)c1 [ONC0002741, abafungin]",79.84
10,"COc1cccc(OC)c1-c1ccc(C[C@H](NC(=O)c2c(Cl)cccc2Cl)C(=O)O)cc1 [ONC0001090, tr14035]",78.15
11,"CN(C)CCCNC(=O)c1ccc(-c2cc(O)c3ncccc3c2)cc1 [ONC0001031, ml324]",68.82
12,"COC(=O)[C@H]1[C@@H](C)[C@@H](OC)C=CO[C@@]2(C)Oc3c(C)c(O)c4c(O)c(cc(O)c4c3C2=O)NC(=O)/C(C)=C\C=C/[C@@H](C)[C@@H](O)[C@@H](C)[C@H](O)[C@@H]1C [ONC0003453, rifamycin sv sodium salt]",53.39
13,"CN[C@@H](C)[C@H]1[C@H](O)C[C@@]2(C)[C@@H]3CC[C@H]4C(C)(C)[C@@H](NC)CC[C@@]45C[C@@]35CC[C@]12C [ONC0004659, cyclovirobuxin d bebuxine]",83.37
14,"CN1CCN(CCCN2c3ccccc3Sc3ccc(S(=O)(=O)N(C)C)cc32)CC1 [ONC0002303, thioproperazine]",65.7
15,"O=c1[nH]c(=O)n([C@H]2CCCO2)cc1F [ONC0004801, tegafur ft207 nsc 148958]",103
16,"C[C@@H]1CC[C@@]2(NC1)O[C@H]1C[C@H]3[C@@H]4CC=C5C[C@@H](O[C@@H]6O[C@H](CO)[C@@H](O[C@@H]7O[C@@H](C)[C@H](O)[C@@H](O)[C@H]7O)[C@H](O)[C@H]6O[C@@H]6O[C@@H](C)[C@H](O)[C@@H](O)[C@H]6O)CC[C@]5(C)[C@H]4CC[C@]3(C)[C@H]1[C@@H]2C [ONC0001969, solamargine]",78.42
17,"O=C(Nc1cc(Cl)cc(Cl)c1O)c1c(O)c(Cl)cc(Cl)c1Cl [ONC0004299, oxyclozanide]",65.63
18,"O=C(O)Cc1ccccc1Nc1c(Cl)cccc1Cl [ONC0000586, diclofenac sodium]",89.74
19,C[C@@H](c1ncncc1F)[C@](O)(Cn1cncn1)c1ccc(F)cc1F [Voriconazole],2.12
20,"Cc1nn(C)c2nc(NNC(=O)Nc3cc(Cl)nc(Cl)c3)cc(C(C)C)c12 [ONC0003603, jte013]",86.58
